# From PubChem BioAssay AID2685 (National Center for Advancing Translational Sciences (NCATS), 2010)
# Some of the results follow. The main result of the screen is listed elsewhere. These columns were measured beside it and carry no call. The list favours compounds with an active or inconclusive main result. The note in brackets gives the kind of curve behind each potency; many fits are weak.
# Experiment: qHTS Assay for Lipid Storage Modulators in Drosophila S3 Cells;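 on cell number change: cells counted by Cell Tracker Red CMTPX staining in the red channel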
# Settings: BODIPY lipid droplet fluorescence, 18-24 h; for cell number change: measured here: cell count max response, cells fed with added oleic acid
# In short: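 Drosophila S3 cells got compounds at several concentrations plus oleic acid (400 uM solution). Laser-scanning cytometry with 488 nm excitation read lipid droplets at 500-530 nm and cells at 575-640 nm. Percent activity was relative to 20 uM Triacsin C.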
# [1] = measured here: lipid fluorescence (Fed channel) AC50, cells fed with added oleic acid
# [2] = measured here: cell number channel AC50, cells fed with added oleic acid
Structure (SMILES),cell number change,AC50 [1],AC50 [2]
Cc1nc2cc(NS(=O)(=O)c3c(C)c(C)cc(C)c3C)ccc2s1,-23.3%,"16.4 µM [falling, partial curve, poor fit]",
Cc1ccc(-n2c(C)cc(C(=O)Cn3nc(C(=O)O)c4ccccc4c3=O)c2C)cc1,-20.4%,"16.4 µM [falling, partial curve, poor fit]",
Cc1cccc2c1-c1sc(C(=O)Nc3nccs3)cc1CO2,-11%,"0.206 µM [rising, full curve, poor fit]","4.61 µM [rising, partial curve, poor fit]"
Cn1c(CC(=O)Nc2ccc(Cl)c(Cl)c2)nnc1SCC(=O)N1CCN(c2ccccc2)CC1,141%,,
Cc1cccc(C)c1NC1=NC(=S)N(c2ccc(N(C)C)cc2)C1(C)C,-21.9%,"14.6 µM [falling, partial curve, poor fit]",
O=C(NCCN1CCCC1=O)C1CCC(=O)N(CCc2ccc(Cl)cc2)C1 (stereo not given),11.9%,,
COc1cc(OC)cc(C(=O)N[C@H](C(=O)OCC(=O)Nc2ccc(C(N)=O)cc2)C(C)C)c1,43.6%,"18.4 µM [rising, single point]","4.11 µM [rising, single point]"
O=C(O)Cc1ccc2ocnc2c1,12.5%,"20.6 µM [rising, single point]",
CCc1ccc(/C=C/C(=O)c2ccc(S(=O)(=O)N(C)C)cc2)cc1,7.1%,,
COc1ccc(CN(C)C(=O)C2CCN(C(=O)Nc3ccccc3)CC2)cc1,-0.105%,"0.731 µM [falling, partial curve, poor fit]",
CN1CC(=O)N(CC(=O)N2N=C(c3ccc(Cl)cc3)CC2c2ccco2)C1=O (stereo not given),-25.2%,"32.6 µM [falling, single point]",
Nc1cc([N+](=O)[O-])ccc1O,,"23.1 µM [falling, single point]",
C/C(Cn1ncc(N2CCOCC2)c(Cl)c1=O)=N\O,29.8%,"8.2 µM [rising, partial curve]","0.82 µM [rising, full curve, poor fit]"
CC(C)OC(=O)c1sc2nc(-c3ccccc3)ccc2c1N,-56.1%,"23.1 µM [falling, partial curve]","25.9 µM [falling, partial curve]"
CC1CCCCC1NC(=O)c1ccc(NS(=O)(=O)c2ccc3[nH]c(=O)[nH]c3c2)cc1 (stereo not given),-24.1%,,
O=c1c2ccccc2oc2nc3n(c(=O)c12)CCCS3,0.533%,"2.06 µM [rising, full curve]",
Cc1ccccc1Nc1nc(N)nc(CSc2nnnn2-c2ccccc2)n1,-12.2%,,
O=C(OCc1nc2ccccc2c(=O)[nH]1)c1cccs1,-7.33%,,
COc1ccc(N(Cc2cc3ccc(C)cc3[nH]c2=O)C(=O)C2CCCO2)cc1 (stereo not given),22%,"1.3 µM [rising, partial curve]","0.116 µM [rising, full curve]"
O=C(Cn1ccc(=O)[nH]c1=O)Nc1ccc(C(=O)O)c(O)c1,-5.94%,"2.06 µM [falling, full curve]","4.61 µM [falling, single point]"
Cc1cccc(C)c1OCC(=O)N/N=C/c1ccc2c(c1)OCO2,-16.6%,"32.6 µM [falling, single point]",

Structure (SMILES),cell number change,AC50 [1],AC50 [2]
COC(=O)c1cccnc1NC(=S)NNC(=O)c1ccccc1,-5.7%,,
Cc1sc(NC(=O)c2ccco2)c(CN2CCN(c3ccc(F)cc3)CC2)c1C,15%,"6.51 µM [rising, partial curve, poor fit]",
COc1ccccc1C(=O)Nc1ccc(OCC(=O)N2CC(C)OC(C)C2)cc1 (stereo not given),30.1%,"18.4 µM [rising, partial curve]","0.116 µM [rising, full curve, poor fit]"
CCc1ccccc1NC(=O)CCN1C(=O)C2CC=CCC2C1=O (stereo not given),2.06%,,
C=CCn1c(O)c(N=NC(=S)Nc2ccccc2F)c2ccccc21,-17.6%,,
CCn1nc(C(=O)OCC(=O)N(CCC#N)c2ccccc2)c2ccccc2c1=O,-4.54%,"1.84 µM [falling, partial curve]",
O=C(CN1CCCCCC1)Nc1ccc(Br)cc1[N+](=O)[O-],-7.92%,"29.1 µM [falling, single point]",
COc1ccc(NC(=O)C2CCN(c3cc(-c4ccccc4)nc4ncnn34)CC2)cc1OC,-12.9%,,
CC1CN(CCc2ccccc2)c2nc3c(c(=O)[nH]c(=O)n3C)n2C1 (stereo not given),23.1%,,"6.51 µM [rising, single point]"
Nc1c(C(=O)NCc2ccccc2)nnn1Cc1ccccc1,-17.5%,"0.58 µM [falling, partial curve, poor fit]",
CCCC1(C(=O)OC)NC(c2ccc(OC)c(OC)c2)C2C(=O)N(c3ccc4c(c3)OCO4)C(=O)C21 (stereo not given),68%,"2.06 µM [rising, partial curve]","7.31 µM [rising, partial curve]"
COc1ccc(C(=O)OCC(=O)Nc2cc(C)on2)c(OC)c1OC,,"0.731 µM [rising, partial curve, poor fit]",
COc1ccc(S(=O)(=O)Nc2ccccc2C(=O)N2CCOCC2)cc1F,-20.9%,"23.1 µM [falling, single point]",
Cc1c(C)c(C)c(S(=O)(=O)Nc2ccc3[nH]c(=O)[nH]c3c2)c(C)c1C,21%,"29.1 µM [falling, single point]",
O=C(c1ccccc1F)N1CCC(N2CCCCCC2)CC1,-1.46%,"18.4 µM [rising, partial curve, poor fit]",
COc1ccc(C(=O)c2ccc(OC)cc2OC)cc1,,"2.31 µM [rising, partial curve]","1.84 µM [rising, partial curve]"
Cc1ccc(C(=O)COC(=O)C(C)N2C(=O)C3C4CCC(C4)C3C2=O)cc1 (stereo not given),,"32.6 µM [rising, single point]",
C=CCn1c(=N)c(S(=O)(=O)c2ccc(C)c(C)c2)cc2c(=O)n3ccccc3nc21,32.4%,,
O=C(NCCc1ccccc1F)C1CCCN1S(=O)(=O)c1ccc2ccccc2c1 (stereo not given),-24%,"18.4 µM [falling, partial curve]",
O=C(Nc1cccc(-c2cccc(F)c2)c1)C1CCN(CC2CCOC2)CC1 (stereo not given),53.1%,"6.51 µM [rising, full curve]","29.1 µM [rising, single point]"
CN1CCN(c2ccc(NC(=O)c3ccc4c(c3)OCO4)cc2)CC1,3.52%,"0.231 µM [falling, full curve, poor fit]",

Structure (SMILES),cell number change,AC50 [1],AC50 [2]
O=C(CSc1nc2ccccc2c(=O)n1CC1CCCO1)NCC1CCCO1 (stereo not given),-24.6%,"32.6 µM [falling, single point]",
CCOC(=O)C1=C(c2ccccc2)NC(=S)NC1C (stereo not given),-15.9%,,
CCCCn1nc(C(=O)Nc2ccc3c(c2)OCCO3)c2ccccc2c1=O,-24%,"0.411 µM [rising, single point]","0.164 µM [falling, full curve, poor fit]"
NCCNC(=O)c1c(NC(=O)c2ccccc2)sc2c1CCCC2,-26%,"1.84 µM [rising, partial curve, poor fit]",
O=C(N/N=C/c1cccc(F)c1)c1ccc(Cl)cc1,10.4%,"29.1 µM [rising, single point]",
Cc1cc(F)ccc1NC(=O)Cn1c(C)csc1=O,6.36%,,
Cc1cccc(-c2nc(CS(=O)CC(=O)N3CC(C)CC(C)C3)c(C)o2)c1 (stereo not given),2.64%,"0.58 µM [rising, single point]","6.51 µM [rising, single point]"
CCOc1ccc(/C(O)=C2/C(=O)C(=O)N(CC3CCCO3)C2c2ccc(C)o2)cc1 (stereo not given),190%,,"29.1 µM [rising, single point]"
Cn1c(CSc2ncccn2)nnc1SCC(=O)N1CCCc2ccccc21,2.85%,,
COc1cccc(C2CC(c3ccccc3)=NN2S(=O)(=O)c2ccccc2)c1OC (stereo not given),4.22%,"3.26 µM [rising, partial curve]",
COc1ccc(CC(=O)NC(C)CCc2ccccc2)cc1OC (stereo not given),-12.5%,"0.58 µM [rising, single point]",
COc1ccc(CNC2CCCc3ccccc32)cc1OC (stereo not given),21.2%,"1.64 µM [rising, partial curve, poor fit]",
Cc1cc(C)nc(Sc2c(C)nn(-c3ccccc3)c2C)n1,-11.5%,,
Cc1cc2nc3c(=O)[nH]c(=O)[nH]c3nc2c([N+](=O)[O-])c1N,-38.6%,,"0.651 µM [falling, full curve]"
COC1(NC(=O)c2ccccc2)C(C)=CC(=O)C=C1C,19%,"0.00461 µM [rising, full curve, poor fit]",
O=S(=O)(NCCC1=CCCCC1)c1ccc(OC(F)(F)F)cc1,-54.7%,"6.51 µM [rising, single point]","18.4 µM [falling, single point]"
CCN1CCCC1CN(Cc1cc2cc(C)ccc2[nH]c1=O)C(=O)Nc1ccccc1OC (stereo not given),-48.1%,"29.1 µM [falling, single point]",
O=C(CCn1c(=O)oc2ccccc21)Nc1ccc(N2CCOCC2)cc1,23.5%,,
COC(=O)c1ccc(N2CCN(C(C)=O)CC2)c(NC(=O)c2cccnc2)c1,8.6%,,
C=CCN(c1ccccc1)S(=O)(=O)c1cccc(C(=O)NCC(c2ccc(OC)cc2)N2CCCCC2)c1 (stereo not given),,,"0.58 µM [rising, partial curve]"

# Retrieved one by one from the list above (three):
Structure (SMILES),cell number change,AC50 [1],AC50 [2]
CC1CN(CCc2ccccc2)c2nc3c(c(=O)[nH]c(=O)n3C)n2C1 (stereo not given),23.1%,,"6.51 µM [rising, single point]"
CCOc1ccc(/C(O)=C2/C(=O)C(=O)N(CC3CCCO3)C2c2ccc(C)o2)cc1 (stereo not given),190%,,"29.1 µM [rising, single point]"
O=C(NCCN1CCCC1=O)C1CCC(=O)N(CCc2ccc(Cl)cc2)C1 (stereo not given),11.9%,,

# One compound at a time, as listed above.
# CCn1nc(C(=O)OCC(=O)N(CCC#N)c2ccccc2)c2ccccc2c1=O reads cell number change: -4.54%; AC50 [1]: 1.84 µM [falling, partial curve]
# COc1cccc(C2CC(c3ccccc3)=NN2S(=O)(=O)c2ccccc2)c1OC (stereo not given) reads cell number change: 4.22%; AC50 [1]: 3.26 µM [rising, partial curve]
